# Test results published in article PMC7955166.
# These are yes or no findings as the source states them, for the method shown. For some of these results: In cells and extracts the contact can be indirect. Some entries that bind do so weakly or less than the wild type. Tags and fused reporters may be left off the sequences shown.
# T1: MBP-CYRI-A R159D (mouse) (UniProt Q8BHZ0)
# T1 sequence: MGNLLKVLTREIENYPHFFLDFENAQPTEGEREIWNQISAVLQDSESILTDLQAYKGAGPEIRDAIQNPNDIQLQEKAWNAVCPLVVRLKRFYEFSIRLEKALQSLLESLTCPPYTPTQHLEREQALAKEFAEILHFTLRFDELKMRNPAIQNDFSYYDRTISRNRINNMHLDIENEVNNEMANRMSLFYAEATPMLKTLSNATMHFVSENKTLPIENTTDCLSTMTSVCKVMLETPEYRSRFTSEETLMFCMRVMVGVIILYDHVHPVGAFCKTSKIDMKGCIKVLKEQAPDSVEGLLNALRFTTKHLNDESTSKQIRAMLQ
# T2: MBP-CYRI-A R160D (mouse) (UniProt Q8BHZ0)
# T2 sequence: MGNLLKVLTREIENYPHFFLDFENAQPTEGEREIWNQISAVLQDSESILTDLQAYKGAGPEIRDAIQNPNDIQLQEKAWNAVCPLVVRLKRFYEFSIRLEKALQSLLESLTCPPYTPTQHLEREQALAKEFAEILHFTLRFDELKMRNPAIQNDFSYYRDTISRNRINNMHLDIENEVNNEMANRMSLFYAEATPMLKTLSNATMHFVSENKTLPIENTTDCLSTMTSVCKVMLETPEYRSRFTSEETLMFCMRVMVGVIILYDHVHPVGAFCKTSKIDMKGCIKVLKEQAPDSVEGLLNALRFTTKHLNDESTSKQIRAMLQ
# T3: MBP-CYRI-A (mouse) (UniProt Q8BHZ0)
# T3 sequence: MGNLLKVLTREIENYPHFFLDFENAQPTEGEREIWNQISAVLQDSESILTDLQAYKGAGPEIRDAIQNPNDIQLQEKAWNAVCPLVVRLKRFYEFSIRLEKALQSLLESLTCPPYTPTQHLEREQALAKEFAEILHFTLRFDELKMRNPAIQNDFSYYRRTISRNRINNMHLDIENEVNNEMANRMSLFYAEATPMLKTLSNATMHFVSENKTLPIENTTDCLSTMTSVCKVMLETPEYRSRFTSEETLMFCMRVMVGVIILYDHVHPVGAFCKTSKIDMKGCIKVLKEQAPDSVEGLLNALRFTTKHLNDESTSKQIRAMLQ
# T4: MBP-CYRI-A R159D R160D (double mutant) (mouse) (UniProt Q8BHZ0)
# T4 sequence: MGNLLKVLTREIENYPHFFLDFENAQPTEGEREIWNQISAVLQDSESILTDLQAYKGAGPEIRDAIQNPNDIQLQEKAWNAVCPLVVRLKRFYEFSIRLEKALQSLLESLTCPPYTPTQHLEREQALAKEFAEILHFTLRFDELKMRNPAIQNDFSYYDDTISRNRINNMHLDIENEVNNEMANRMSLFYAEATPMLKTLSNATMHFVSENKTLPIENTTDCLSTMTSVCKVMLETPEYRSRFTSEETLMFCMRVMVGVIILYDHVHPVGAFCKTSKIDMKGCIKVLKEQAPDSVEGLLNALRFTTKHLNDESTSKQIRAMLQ
# T5: P17-HA-CYRI-B (not stated (human or mouse cDNA cloned)) (UniProt Q921M7)
# T5 sequence: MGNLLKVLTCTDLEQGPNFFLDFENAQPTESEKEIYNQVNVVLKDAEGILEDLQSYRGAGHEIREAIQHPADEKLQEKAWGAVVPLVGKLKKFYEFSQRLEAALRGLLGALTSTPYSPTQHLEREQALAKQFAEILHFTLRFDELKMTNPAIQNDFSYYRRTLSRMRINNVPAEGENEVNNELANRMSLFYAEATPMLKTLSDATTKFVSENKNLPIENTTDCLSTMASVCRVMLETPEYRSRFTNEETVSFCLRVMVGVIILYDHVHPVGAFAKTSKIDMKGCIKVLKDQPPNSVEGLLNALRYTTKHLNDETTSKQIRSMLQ
# Key:
# MBP-CYRI-A R159D (mouse) = molecular target: T1, MBP-CYRI-A R159D (mouse); test: pull-down; MBP-tagged CYRI on MBP beads; 30μg purified HA-tagged protein in Binding Buffer (50mM Tris 7.5, 50mM NaCl, 5mM MgCl2, 0.1% Tx100), 500μl, 90min at 4°C, 5 washes; blot with HA antibody; both purified
# MBP-CYRI-A R160D (mouse) = molecular target: T2, MBP-CYRI-A R160D (mouse); test: as above
# MBP-CYRI-A (mouse) [1] = molecular target: T3, MBP-CYRI-A (mouse); test: as above
# [2] = molecular target: T4, MBP-CYRI-A R159D R160D (double mutant) (mouse); test: as above
# MBP-CYRI-A (mouse) [3] = molecular target: T3, MBP-CYRI-A (mouse); test: pull-down; MBP pulldown competition: as the MBP pulldown with HA-CYRI-B, with 0, 1, 5, 10 and 30μg active Rac1 Q61L added to 500μl; blots with anti-MBP, anti-HA, anti-Rac1/2/3; both purified
# [4] = molecular target: T5, P17-HA-CYRI-B (not stated (human or mouse cDNA cloned)); test: proximity ligation; COS-7 cells co-transfected with CYRI-A-FLAG and P17-HA-CYRI-B for 24h; Duolink with anti-FLAG and anti-HA
binding (MBP-CYRI-A R159D (mouse)),binding (MBP-CYRI-A R160D (mouse)),binding (MBP-CYRI-A (mouse) [1]),binding [2],binding (MBP-CYRI-A (mouse) [3]),binding [4],Binder
binds weakly,binds weakly,binds weakly,binds weakly,binds,,"HA-CYRI-B (protein, UniProt Q921M7 1-324) MGNLLKVLTCTDLEQGPNFFLDFENAQPTESEKEIYNQVNVVLKDAEGILEDLQSYRGAGHEIREAIQHPADEKLQEKAWGAVVPLVGKLKKFYEFSQRLEAALRGLLGALTSTPYSPTQHLEREQALAKQFAEILHFTLRFDELKMTNPAIQNDFSYYRRTLSRMRINNVPAEGENEVNNELANRMSLFYAEATPMLKTLSDATTKFVSENKNLPIENTTDCLSTMASVCRVMLETPEYRSRFTNEETVSFCLRVMVGVIILYDHVHPVGAFAKTSKIDMKGCIKVLKDQPPNSVEGLLNALRYTTKHLNDETTSKQIRSMLQ"
,,,,,binds,"CYRI-A-FLAG (protein, UniProt Q8BHZ0 1-323) MGNLLKVLTREIENYPHFFLDFENAQPTEGEREIWNQISAVLQDSESILTDLQAYKGAGPEIRDAIQNPNDIQLQEKAWNAVCPLVVRLKRFYEFSIRLEKALQSLLESLTCPPYTPTQHLEREQALAKEFAEILHFTLRFDELKMRNPAIQNDFSYYRRTISRNRINNMHLDIENEVNNEMANRMSLFYAEATPMLKTLSNATMHFVSENKTLPIENTTDCLSTMTSVCKVMLETPEYRSRFTSEETLMFCMRVMVGVIILYDHVHPVGAFCKTSKIDMKGCIKVLKEQAPDSVEGLLNALRFTTKHLNDESTSKQIRAMLQ"
,,,,,binds,"CYRI-A-FLAG RRDD mutant (protein, UniProt Q8BHZ0 1-323) MGNLLKVLTREIENYPHFFLDFENAQPTEGEREIWNQISAVLQDSESILTDLQAYKGAGPEIRDAIQNPNDIQLQEKAWNAVCPLVVRLKRFYEFSIRLEKALQSLLESLTCPPYTPTQHLEREQALAKEFAEILHFTLRFDELKMRNPAIQNDFSYYDDTISRNRINNMHLDIENEVNNEMANRMSLFYAEATPMLKTLSNATMHFVSENKTLPIENTTDCLSTMTSVCKVMLETPEYRSRFTSEETLMFCMRVMVGVIILYDHVHPVGAFCKTSKIDMKGCIKVLKEQAPDSVEGLLNALRFTTKHLNDESTSKQIRAMLQ"
